These are yes or no findings as the source states them, for the method shown.
Biological target: DGCR8^ΔHBR (residues 489-751), co-expressed with Drosha (human) (UniProt Q8WYQ5)
Assay: SEC-MALS; purified co-expressed Drosha/DGCR8 complex; Superdex 200 Increase 10/300; 20 mM Tris pH 8.0, 750 mM NaCl, 1 mM TCEP, 10% glycerol; both purified

- binding: no binding
B1: DGCR8^ΔHBR (residues 489-751), co-expressed with Drosha (domain or fragment, human, UniProt Q8WYQ5 489-751, looked up)
chain: LITLSVQDAPTKKEFVINPNGKSEVCILHEYMQRVLKVRPVYNFFECENPSEPFGASVTIDGVTYGSGTASSKKLAKNKAARATLEILIPDFVKQTSEEKPKDSEELEYFNHISIEDSRVYELTSKAGLLSPYQILHECLKRNHGMGDTSIKFEVVPGKNQKSEYVMACGKHTVRGWCKNKRVGKQLASQKILQLLHPHVKNWGSLLRMYGRESSKMVKQETSDKSVIELQQYAKKNKPNLHILSKLQEEMKRLAEEREETRK
notes: DGCR8, human, residues 489-751 (tandem dsRBDs and C-terminal tail, no HBR); One copy per Drosha in MP^ΔHBR; also called DGCR8 lacking the HBR; the DGCR8 chain of MP^ΔHBR
